The results in this text go back to PMC6003988, “VRK1 and AURKB form a complex that cross inhibit their kinase activity and the phosphorylation of histone H3 in the progression of mitosis” (Cellular and Molecular Life Sciences: CMLS, 2018).

By UniProt entry, the sequences of proteins in these tests, tags left out.
UniProt Q96GD4: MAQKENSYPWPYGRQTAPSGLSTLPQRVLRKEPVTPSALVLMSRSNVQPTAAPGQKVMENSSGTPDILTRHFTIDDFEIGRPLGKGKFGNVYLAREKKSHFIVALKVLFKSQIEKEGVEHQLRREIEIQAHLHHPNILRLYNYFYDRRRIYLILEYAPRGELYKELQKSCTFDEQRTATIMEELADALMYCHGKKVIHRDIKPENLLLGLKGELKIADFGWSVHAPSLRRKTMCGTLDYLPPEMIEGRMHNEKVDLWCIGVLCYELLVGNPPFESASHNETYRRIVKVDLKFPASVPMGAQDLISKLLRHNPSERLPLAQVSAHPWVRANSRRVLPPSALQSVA

Results are given in words; binding and its absence hold for the method and conditions named. Binding seen in cells or lysates may run through a third protein. Some results given as binding are weak or reduced against the parent protein; the word gives no strength. Where a sequence is shown, tags or fusion partners need not be part of it.

In experiment [1] the target is T1, GST–VRK1 (K179E), kinase inactive, expressed in HEK293T cells (human) (UniProt Q99986).
T1 sequence: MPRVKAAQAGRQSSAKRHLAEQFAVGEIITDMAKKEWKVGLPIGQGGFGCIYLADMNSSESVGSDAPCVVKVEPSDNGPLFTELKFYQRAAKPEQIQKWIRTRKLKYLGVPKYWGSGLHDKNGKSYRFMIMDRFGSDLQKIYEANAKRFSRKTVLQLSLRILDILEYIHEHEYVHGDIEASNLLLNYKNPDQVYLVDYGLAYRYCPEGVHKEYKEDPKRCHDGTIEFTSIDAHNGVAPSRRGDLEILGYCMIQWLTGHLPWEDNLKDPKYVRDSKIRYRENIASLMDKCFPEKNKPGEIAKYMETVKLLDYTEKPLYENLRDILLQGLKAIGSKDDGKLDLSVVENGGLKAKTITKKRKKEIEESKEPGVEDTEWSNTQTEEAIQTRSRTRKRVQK
Nature of the experiment: pull-down; pull-down of GST-VRK1 (kinase active or inactive) from extracts of HEK293T cells co-transfected with V5-AURKB; AURKB detected by immunoblot. (A western blot detects proteins with antibodies after separation by electrophoresis.)

Experiment [2] deals with T2, HA–VRK1–K179E, kinase-dead, expressed in HEK293T cells (human) (UniProt Q99986).
T2 sequence: T1 sequence
Nature of the experiment: co-IP; immunoprecipitation of HA-VRK1 (WT or kinase-dead) from extracts of HEK293T cells co-transfected with V5-AURKB; AURKB detected by immunoblot.

For “V5–AURKB, expressed in HEK293T cells (from UniProt Q96GD4 1-344) (enzyme)”, the binding result in experiment [1] and in experiment [2] was “binds” each time.
